These are yes or no findings as the source states them, for the method shown. Binding seen in cells or lysates may run through a third protein. Some results given as binding are weak or reduced against the parent protein; the word gives no strength.
Experiments:
[1] = molecular target: T1, Serine and arginine rich splicing factor 2 (SRSF2) (human (endogenous in QBC939 and RBE)) (UniProt Q01130); test: co-IP; lysates of QBC939 and RBE cells stably overexpressing RBM10^WT or RBM10^C761Y; antibody on Protein A + G magnetic beads, mixed with lysate at room temperature for 120 min; blot
T1 sequence: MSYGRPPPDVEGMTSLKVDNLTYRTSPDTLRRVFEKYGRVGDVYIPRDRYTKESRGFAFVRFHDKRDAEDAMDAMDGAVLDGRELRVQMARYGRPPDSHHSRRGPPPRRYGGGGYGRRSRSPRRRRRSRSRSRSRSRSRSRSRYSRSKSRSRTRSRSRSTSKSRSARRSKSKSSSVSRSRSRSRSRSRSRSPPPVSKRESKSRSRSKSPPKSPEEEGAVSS

Sequences of proteins named here, by UniProt entry; tags and fusion partners are left off.
UniProt P98175: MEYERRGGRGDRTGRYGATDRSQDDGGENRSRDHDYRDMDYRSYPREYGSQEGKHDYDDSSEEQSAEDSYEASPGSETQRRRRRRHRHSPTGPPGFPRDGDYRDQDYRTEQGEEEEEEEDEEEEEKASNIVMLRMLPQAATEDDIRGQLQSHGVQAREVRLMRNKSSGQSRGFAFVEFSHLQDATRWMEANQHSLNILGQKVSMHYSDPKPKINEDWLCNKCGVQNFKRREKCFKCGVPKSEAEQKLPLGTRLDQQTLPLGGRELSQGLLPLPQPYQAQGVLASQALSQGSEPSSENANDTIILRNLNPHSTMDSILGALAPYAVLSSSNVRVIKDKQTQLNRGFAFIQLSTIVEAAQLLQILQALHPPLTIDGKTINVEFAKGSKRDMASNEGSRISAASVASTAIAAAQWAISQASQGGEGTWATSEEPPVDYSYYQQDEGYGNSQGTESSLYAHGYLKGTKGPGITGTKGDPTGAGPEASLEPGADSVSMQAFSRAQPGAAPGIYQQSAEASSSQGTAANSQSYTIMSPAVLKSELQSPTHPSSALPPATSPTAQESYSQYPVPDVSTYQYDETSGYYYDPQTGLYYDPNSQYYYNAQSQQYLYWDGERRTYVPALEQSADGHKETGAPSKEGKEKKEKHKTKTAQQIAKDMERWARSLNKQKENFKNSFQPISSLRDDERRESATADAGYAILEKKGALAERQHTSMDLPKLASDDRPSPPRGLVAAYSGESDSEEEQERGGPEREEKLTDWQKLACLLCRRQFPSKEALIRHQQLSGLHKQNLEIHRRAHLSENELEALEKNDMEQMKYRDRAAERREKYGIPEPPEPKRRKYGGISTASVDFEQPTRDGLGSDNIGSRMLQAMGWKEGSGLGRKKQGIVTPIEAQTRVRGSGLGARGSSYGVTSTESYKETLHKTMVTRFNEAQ
UniProt Q8IZT6: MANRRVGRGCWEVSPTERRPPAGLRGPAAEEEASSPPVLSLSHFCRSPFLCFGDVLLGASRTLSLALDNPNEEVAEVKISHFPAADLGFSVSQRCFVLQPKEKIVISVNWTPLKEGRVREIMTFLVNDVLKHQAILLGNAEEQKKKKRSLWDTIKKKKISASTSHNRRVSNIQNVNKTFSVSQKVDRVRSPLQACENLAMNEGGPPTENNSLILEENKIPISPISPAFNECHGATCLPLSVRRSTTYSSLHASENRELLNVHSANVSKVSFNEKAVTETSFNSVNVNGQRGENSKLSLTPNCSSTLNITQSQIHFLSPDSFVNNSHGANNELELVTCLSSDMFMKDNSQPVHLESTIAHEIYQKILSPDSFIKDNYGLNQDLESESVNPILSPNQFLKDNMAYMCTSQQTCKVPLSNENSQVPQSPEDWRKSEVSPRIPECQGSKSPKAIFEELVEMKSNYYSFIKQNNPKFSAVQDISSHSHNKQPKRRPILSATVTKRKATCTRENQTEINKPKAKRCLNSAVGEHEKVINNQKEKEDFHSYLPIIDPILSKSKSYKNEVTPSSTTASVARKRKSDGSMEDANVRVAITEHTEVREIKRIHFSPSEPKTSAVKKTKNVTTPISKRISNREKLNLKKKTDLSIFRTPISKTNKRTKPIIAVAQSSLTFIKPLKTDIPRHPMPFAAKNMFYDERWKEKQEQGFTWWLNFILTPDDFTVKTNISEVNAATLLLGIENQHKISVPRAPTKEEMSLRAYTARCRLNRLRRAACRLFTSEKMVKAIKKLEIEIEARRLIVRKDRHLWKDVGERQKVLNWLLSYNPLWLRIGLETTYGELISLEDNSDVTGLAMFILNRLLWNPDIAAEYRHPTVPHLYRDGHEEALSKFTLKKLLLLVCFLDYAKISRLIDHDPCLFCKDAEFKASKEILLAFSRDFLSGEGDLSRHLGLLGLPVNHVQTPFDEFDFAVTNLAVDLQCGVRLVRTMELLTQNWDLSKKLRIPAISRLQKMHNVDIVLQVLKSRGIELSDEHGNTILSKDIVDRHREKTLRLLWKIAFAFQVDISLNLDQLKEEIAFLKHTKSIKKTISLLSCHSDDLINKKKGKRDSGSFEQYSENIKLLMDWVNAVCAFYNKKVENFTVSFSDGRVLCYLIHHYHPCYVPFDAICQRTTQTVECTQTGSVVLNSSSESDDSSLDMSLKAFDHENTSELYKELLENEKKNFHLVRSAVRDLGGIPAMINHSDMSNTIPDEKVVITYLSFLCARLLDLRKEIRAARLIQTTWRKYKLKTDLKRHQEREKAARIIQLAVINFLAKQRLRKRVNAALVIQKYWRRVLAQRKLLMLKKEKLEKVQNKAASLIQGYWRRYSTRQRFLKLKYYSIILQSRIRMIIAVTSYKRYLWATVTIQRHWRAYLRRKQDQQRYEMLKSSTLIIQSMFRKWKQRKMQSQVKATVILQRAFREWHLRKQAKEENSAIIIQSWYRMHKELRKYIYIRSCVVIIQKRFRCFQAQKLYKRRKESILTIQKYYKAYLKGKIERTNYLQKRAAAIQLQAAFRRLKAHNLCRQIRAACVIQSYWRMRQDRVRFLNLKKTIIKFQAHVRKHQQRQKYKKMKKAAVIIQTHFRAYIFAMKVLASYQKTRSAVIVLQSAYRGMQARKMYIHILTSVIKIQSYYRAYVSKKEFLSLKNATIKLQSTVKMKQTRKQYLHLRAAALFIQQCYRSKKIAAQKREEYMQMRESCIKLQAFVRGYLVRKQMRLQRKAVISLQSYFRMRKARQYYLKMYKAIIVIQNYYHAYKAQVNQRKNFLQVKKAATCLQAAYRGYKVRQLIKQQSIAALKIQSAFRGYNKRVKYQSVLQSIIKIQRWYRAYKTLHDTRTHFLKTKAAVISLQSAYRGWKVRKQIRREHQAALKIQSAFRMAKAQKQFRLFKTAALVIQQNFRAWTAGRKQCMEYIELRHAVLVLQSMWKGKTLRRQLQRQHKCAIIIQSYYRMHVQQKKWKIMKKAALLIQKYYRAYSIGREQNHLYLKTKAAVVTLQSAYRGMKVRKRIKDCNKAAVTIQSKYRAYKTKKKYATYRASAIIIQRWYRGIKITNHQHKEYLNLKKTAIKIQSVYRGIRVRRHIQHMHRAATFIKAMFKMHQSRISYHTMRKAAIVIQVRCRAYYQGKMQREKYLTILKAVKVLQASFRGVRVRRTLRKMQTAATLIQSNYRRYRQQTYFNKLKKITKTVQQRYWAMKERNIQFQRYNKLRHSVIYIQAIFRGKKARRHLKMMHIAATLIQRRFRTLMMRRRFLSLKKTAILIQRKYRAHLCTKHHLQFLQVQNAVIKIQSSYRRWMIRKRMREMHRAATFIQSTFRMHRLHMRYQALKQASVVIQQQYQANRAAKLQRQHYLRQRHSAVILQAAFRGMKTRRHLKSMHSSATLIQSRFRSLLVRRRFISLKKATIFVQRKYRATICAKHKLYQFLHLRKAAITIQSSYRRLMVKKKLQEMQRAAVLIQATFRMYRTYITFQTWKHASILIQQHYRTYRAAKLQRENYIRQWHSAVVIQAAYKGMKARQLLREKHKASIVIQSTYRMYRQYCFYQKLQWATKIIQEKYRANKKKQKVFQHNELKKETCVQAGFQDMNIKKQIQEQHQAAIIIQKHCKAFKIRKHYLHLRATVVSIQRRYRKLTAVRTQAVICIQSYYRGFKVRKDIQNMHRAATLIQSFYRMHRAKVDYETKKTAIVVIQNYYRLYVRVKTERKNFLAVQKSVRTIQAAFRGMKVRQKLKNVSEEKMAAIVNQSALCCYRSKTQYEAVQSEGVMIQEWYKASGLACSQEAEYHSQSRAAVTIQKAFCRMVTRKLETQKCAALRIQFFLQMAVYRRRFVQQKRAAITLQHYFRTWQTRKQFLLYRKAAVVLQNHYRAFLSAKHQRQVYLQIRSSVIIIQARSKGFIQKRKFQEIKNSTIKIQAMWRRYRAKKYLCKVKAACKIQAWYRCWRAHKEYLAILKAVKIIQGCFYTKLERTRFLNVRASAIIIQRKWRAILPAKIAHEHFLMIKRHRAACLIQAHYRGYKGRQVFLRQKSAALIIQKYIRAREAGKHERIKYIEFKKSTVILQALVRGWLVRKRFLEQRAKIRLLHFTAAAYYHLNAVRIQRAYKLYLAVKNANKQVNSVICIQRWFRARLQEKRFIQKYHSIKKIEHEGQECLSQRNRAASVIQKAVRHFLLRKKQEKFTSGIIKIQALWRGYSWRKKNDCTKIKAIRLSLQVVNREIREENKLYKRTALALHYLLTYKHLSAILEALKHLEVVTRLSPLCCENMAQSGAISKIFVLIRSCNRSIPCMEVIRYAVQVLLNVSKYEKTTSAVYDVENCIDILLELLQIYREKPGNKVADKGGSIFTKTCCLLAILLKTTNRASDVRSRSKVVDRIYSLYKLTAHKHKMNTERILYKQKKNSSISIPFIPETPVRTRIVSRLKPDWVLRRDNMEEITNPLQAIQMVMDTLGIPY

[2] = molecular target: T2, Dishevelled-3 (DVL3) (human (endogenous in CCA cell lines)) (UniProt Q92997); test: co-IP; lysate of CCA cells; antibody on Protein A + G magnetic beads, mixed with lysate at room temperature for 120 min; blot
T2 sequence: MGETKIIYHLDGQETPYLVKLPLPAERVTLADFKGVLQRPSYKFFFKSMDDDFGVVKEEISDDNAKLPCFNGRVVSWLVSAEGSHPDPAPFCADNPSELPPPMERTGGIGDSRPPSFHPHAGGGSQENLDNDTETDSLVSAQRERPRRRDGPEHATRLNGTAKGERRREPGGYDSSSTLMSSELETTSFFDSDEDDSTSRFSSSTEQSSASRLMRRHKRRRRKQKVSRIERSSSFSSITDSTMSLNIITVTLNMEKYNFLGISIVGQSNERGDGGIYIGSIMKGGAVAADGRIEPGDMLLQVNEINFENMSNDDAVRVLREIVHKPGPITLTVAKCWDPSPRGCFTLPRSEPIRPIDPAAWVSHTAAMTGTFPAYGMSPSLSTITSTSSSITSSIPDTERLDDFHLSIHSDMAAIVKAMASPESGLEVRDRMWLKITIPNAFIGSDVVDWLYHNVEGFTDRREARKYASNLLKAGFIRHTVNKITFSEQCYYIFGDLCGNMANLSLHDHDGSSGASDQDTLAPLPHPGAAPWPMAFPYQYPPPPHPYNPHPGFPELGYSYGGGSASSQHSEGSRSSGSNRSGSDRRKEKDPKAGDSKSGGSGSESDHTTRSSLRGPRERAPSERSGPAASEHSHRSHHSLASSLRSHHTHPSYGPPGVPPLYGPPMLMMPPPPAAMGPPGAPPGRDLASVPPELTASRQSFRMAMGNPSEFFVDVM

| binding [1] | binding [2] | Substance |
| --- | --- | --- |
| binds |  | RNA-binding protein 10 (RBM10), wild type (from UniProt P98175 1-930) |
|  | no binding | Assembly factor for spindle microtubules (ASPM), isoform ASPM203 (from UniProt Q8IZT6 1-3477) |
